Values from PubChem BioAssay AID504764 (Drosophila RNAi Screening Center, 2011).

Assay: 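Knock-downs that raise or lower a Notch target reporter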 (primary screen)
System: Drosophila Kc167 cells
Reagent: long dsRNA against Drosophila genes
Time to read-out: about 5 days (4 days dsRNA, then 24 h after transfection)
Challenge: transfection of constitutively active membrane-tethered Notch lacking the extracellular domain, read 24 h later
Measurement: 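Light from a Notch-responsive E(spl)m3 luciferase reporter under active Notch, with control-promoter and no-Notch reporter wells to normalise; raw counts from paired wells a and b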
Direction: induced reporter light, run 1, well a and induced reporter light, run 1, well b: higher = more light from the Notch target reporter with active Notch; control promoter light, run 1, well a and control promoter light, run 1, well b: higher = more light from the viral control promoter (cell number, transfection, viability); uninduced reporter light, run 1, well a: higher = more light from the Notch target reporter without active Notch
Active means: 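Wells with low control signal or poorly matching duplicates excluded; duplicates averaged; per source plate, z beyond ±2 for induced/control log2 ratio or beyond ±1.8 for induced/uninduced marks a hit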
Meaning of the calls: active = modifier hit (raised or lowered Notch signal); inactive = not a hit
The deposit covers about 22,000 reagents; shown is a random part of those with a known target gene and a result. In the full data, 403 (1.9%) got an active call. 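Unnormalised raw counts per well; ratio z-scores behind the hit calls and whether each hit raises or lowers signal are not deposited.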 Names joined by + are all predicted targets of the reagent. No sequences are given here. The record does not give: the amount of reagent.

gene	DRSC id	induced reporter light, run 1, well a	induced reporter light, run 1, well b	control promoter light, run 1, well a	control promoter light, run 1, well b	uninduced reporter light, run 1, well a	call
CG5323	DRSC06929	65775	57295	53470	56765	5405	inactive
PIG-S (Phosphatidylinositol glycan anchor biosynthesis class S)	DRSC14643	1.77e5	2.03e5	2.72e5	2.35e5	14530	inactive
PIG-S (Phosphatidylinositol glycan anchor biosynthesis class S)	DRSC15388	1.70e5	2.00e5	1.98e5	1.93e5	13815	inactive
PIG-S (Phosphatidylinositol glycan anchor biosynthesis class S)	DRSC15952	1.85e5	1.99e5	2.00e5	2.19e5	13170	inactive
CG2698	DRSC15447	62240	68110	77870	49985	4792	inactive
CG18609	DRSC06775	1.21e5	1.04e5	1.19e5	1.35e5	8775	inactive
fuss (fussel)	DRSC17200	1.07e5	90395	2.02e5	1.57e5	7540	inactive
fuss (fussel)	DRSC21452						inactive
kel (kelch)	DRSC03554	1.18e5	1.07e5	1.16e5	1.47e5	10730	inactive
CG13086	DRSC02190	72275	72870	88140	1.20e5	4955	inactive
Evi5 (Ecotropic viral integration site 5)	DRSC19421	1.15e5	1.16e5	1.43e5	1.60e5	8295	inactive
CG31386 (retired record)	DRSC22769						inactive
bap (bagpipe)	DRSC16908	2.11e5	1.90e5	2.69e5	2.88e5	15610	inactive
Wsck	DRSC13682	1.85e5	1.63e5	1.54e5	1.50e5	15295	inactive
vex (vexed)	DRSC19481	1.43e5	1.40e5	3.37e5	3.08e5	10225	inactive
vex (vexed)	DRSC19651	1.45e5	1.30e5	2.57e5	2.71e5	8200	inactive
vex (vexed)	DRSC21843						inactive
Gnpnat (Glucosamine-phosphate N-acetyltransferase)	DRSC15405	1.58e5	1.63e5	1.97e5	2.16e5	12210	inactive

Continued (6 carried over from the part before).
gene	DRSC id	induced reporter light, run 1, well a	induced reporter light, run 1, well b	control promoter light, run 1, well a	control promoter light, run 1, well b	uninduced reporter light, run 1, well a	call
bap (bagpipe)	DRSC16908	2.11e5	1.90e5	2.69e5	2.88e5	15610	inactive
Wsck	DRSC13682	1.85e5	1.63e5	1.54e5	1.50e5	15295	inactive
vex (vexed)	DRSC19481	1.43e5	1.40e5	3.37e5	3.08e5	10225	inactive
vex (vexed)	DRSC19651	1.45e5	1.30e5	2.57e5	2.71e5	8200	inactive
vex (vexed)	DRSC21843						inactive
Gnpnat (Glucosamine-phosphate N-acetyltransferase)	DRSC15405	1.58e5	1.63e5	1.97e5	2.16e5	12210	inactive
TfIIFbeta (Transcription factor TFIIFbeta)	DRSC16884	42560	58215	38120	36280	4185	inactive
Nckx30C	DRSC02686	1.53e5	1.94e5	97175	1.18e5	20755	inactive
Nckx30C	DRSC02687	1.19e5	1.41e5	86150	97470	16785	inactive
Nckx30C	DRSC02688	1.72e5	1.98e5	1.05e5	1.01e5	21145	inactive
Nckx30C	DRSC02689	68725	87160	34800	44340	12080	inactive
Ntan1 (N-terminal amidohydrolase 1)	DRSC07546	1.25e5	83490	87365	69015	9082	inactive
CG10602	DRSC02075	1.66e5	1.85e5	1.74e5	1.63e5	13515	inactive
trol (terribly reduced optic lobes)	DRSC17714	60080	80960	83405	91285	5065	inactive
trol (terribly reduced optic lobes)	DRSC17718	84940	1.14e5	1.17e5	1.42e5	7725	inactive
trol (terribly reduced optic lobes)	DRSC18613	1.19e5	98050	1.70e5	2.16e5	7855	inactive
trol (terribly reduced optic lobes)	DRSC18814	1.05e5	1.23e5	1.93e5	2.12e5	7935	inactive
CG8260	DRSC20098	34695	28685	27620	18055	3815	inactive
Or85c (Odorant receptor 85c)	DRSC16766	1.09e5	1.38e5	1.38e5	1.03e5	7180	inactive
MFS18 (Major Facilitator Superfamily Transporter 18)	DRSC00452	2.31e5	2.28e5	2.17e5	2.61e5	18555	inactive
Trp1 (Translocation protein 1)	DRSC03465	80550	1.22e5	66400	79850	14670	inactive
CG2818	DRSC00540	85310	1.13e5	98845	98110	6610	active
Cht6 (Chitinase 6)	DRSC18001	1.12e5	1.23e5	2.13e5	2.41e5	9060	inactive
Cht6 (Chitinase 6)	DRSC18002	32260	26185	50425	47680	4950	inactive
Cht6 (Chitinase 6)	DRSC18253	1.19e5	1.50e5	2.75e5	2.43e5	10745	inactive
Tim10 + CG42497	DRSC04664	1.56e5	1.46e5	1.29e5	1.31e5	10760	inactive
CG8839	DRSC07285	1.38e5	1.37e5	1.45e5	1.12e5	11805	inactive
CG5214	DRSC15739	69835	84090	73875	50450	5395	inactive
CG13870	DRSC06429	45190	39840	61175	90420	4800	inactive
MFS9 (Major Facilitator Superfamily Transporter 9)	DRSC15560	2.03e5	2.14e5	2.43e5	2.78e5	16628	inactive
Mtmr6 (Myotubularin related protein 6)	DRSC04046	1.67e5	1.38e5	1.78e5	1.75e5	13215	inactive
CG7215 + Prx5	DRSC16214	2.02e5	1.55e5	1.73e5	1.66e5	14710	inactive
CG7215 + Prx5	DRSC16215	8850	12350	9990	7115	815	inactive
Muc12Ea (Mucin 12Ea)	DRSC19937	70630	70610	1.03e5	60120	13690	inactive
Ran	DRSC20364	29235	31720	48875	42490	1615	inactive
Gr98d (Gustatory receptor 98d)	DRSC14571	1.88e5	1.32e5	2.10e5	2.12e5	13455	inactive
CG32104	DRSC10127	68015	82955	92045	1.02e5	4855	inactive
CG32104	DRSC10128	1.18e5	1.38e5	1.79e5	1.58e5	10780	inactive
